{"sequences": {"note": "The chains behind the UniProt entries cited, without tags or fusion partners. Where a name states a change or a piece, a line headed by the entry shows the natural chain unless it says otherwise.", "UniProt P25098": "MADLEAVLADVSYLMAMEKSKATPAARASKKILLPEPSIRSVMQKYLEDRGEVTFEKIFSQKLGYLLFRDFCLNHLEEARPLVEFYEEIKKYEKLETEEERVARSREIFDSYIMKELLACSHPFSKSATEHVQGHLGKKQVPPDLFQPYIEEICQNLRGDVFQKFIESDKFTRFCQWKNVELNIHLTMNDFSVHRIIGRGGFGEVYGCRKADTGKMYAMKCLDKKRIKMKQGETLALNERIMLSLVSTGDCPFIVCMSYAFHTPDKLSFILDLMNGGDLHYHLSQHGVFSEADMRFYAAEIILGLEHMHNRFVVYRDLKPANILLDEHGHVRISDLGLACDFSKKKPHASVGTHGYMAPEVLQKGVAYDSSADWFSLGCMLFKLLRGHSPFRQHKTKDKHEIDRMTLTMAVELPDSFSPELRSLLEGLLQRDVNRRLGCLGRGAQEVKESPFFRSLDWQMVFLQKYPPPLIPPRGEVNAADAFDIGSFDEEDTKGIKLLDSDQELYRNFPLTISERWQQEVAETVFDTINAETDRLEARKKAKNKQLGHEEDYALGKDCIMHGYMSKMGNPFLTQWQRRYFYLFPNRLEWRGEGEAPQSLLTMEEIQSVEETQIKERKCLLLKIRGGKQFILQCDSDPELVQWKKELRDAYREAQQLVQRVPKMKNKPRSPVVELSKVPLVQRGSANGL"}, "source": "paper PMC8635974", "key": {"[1]": {"molecular_target": "M3R-mTurquoise (muscarinic acetylcholine receptor M3 with mTurquoise fused at the C-terminus) (UniProt P20309)", "test": "FRET or BRET; single-cell FRET between M3R-mTurq and GRK2-YFP (colour switch of the fluorophores) compared with M3R-YFP and GRK2-mTurq; amplitudes normalized to 30 µM ACh; co-transfected proteins not told for this panel"}, "[2]": {"molecular_target": "M3R-mTurquoise (muscarinic acetylcholine receptor M3 with mTurquoise fused at the C-terminus) (UniProt P20309)", "test": "FRET or BRET; single-cell FRET in HEK293T cells transfected with M3R-mTurquoise, pcDNA3, Gβ1, Gγ2 and GRK2-YFP (without Gαq overexpression); agonists ACh, Pilo, Are"}}, "note": "Results are given in words; binding and its absence hold for the method and conditions named. Binding seen in cells or lysates may run through a third protein. Binding can be weak; no strength is given.", "data": [{"substance": "GRK2-YFP (G protein-coupled receptor kinase 2 with YFP fused to the C-terminus) (from UniProt P25098) (enzyme)", "values": [{"measurement": "binding", "setting": "[1]", "value": "binds"}, {"measurement": "binding", "setting": "[2]", "value": "binds"}]}]}
